PubChem BioAssay AID504793, Drosophila RNAi Screening Center, 2011

Screen: 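Knock-downs allowing continued mitosis even though DNA is damaged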 (primary screen)
System: Drosophila S2R+ cells
Reagent: long dsRNA against Drosophila genes, about 0.25 µg dsRNA per well
Duration: 4 days of dsRNA, then 4 hours of drug before read-out
Challenge: doxorubicin 0.5 µM for 4 hours to cause double-strand breaks, in cells also given a low, harmless dose of dsRNA against nbs to sensitise the assay
Measured: 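Mitotic index as the number of phospho-histone H3-positive cells in each well following doxorubicin, given as raw counts without normalisation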
Scale: mitotic cells: higher = more cells in mitosis, weaker G2 arrest
Rule for the call: 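Genes are called active only when high mitotic counts were reproduced with independent dsRNAs and mitosis was checked for delay without damage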
Calls: active = confirmed in follow-up tests; inactive = not confirmed
The screen tested about 23,000 reagents; shown is an unselected part of those that have a named target and a result. In the full data, 62 (0.27%) got an active call. 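Calls come from follow-up tests whose scores are not deposited, so confirmed genes may have low counts here; counts are not normalised per plate.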 Raw values vary from plate to plate and are shown uncorrected. Names joined by + are all predicted targets of the reagent.

predicted target | dsRNA | mitotic cells, replicate 1 | mitotic cells, replicate 2 | outcome
Ccs (Copper chaperone for superoxide dismutase) | DRSC06692 | 8 | – | inactive
bdl (borderless) | DRSC00271 | 4 | – | inactive
CG31368 | DRSC14949 | 6 | – | inactive
CG31368 | DRSC14951 | 11 | – | inactive
St1 (Sulfotransferase 1) | DRSC04504 | 13 | – | inactive
St1 (Sulfotransferase 1) | DRSC25543 | 7 | – | inactive
CG4467 | DRSC15585 | 11 | – | inactive
CG14212 | DRSC19568 | – | – | inactive
CG14212 | DRSC27314 | 7 | – | inactive
CG15356 | DRSC00386 | 6 | – | inactive
Polr2I (RNA polymerase II subunit I) | DRSC16832 | 23 | – | active
Mdr49 (Multi drug resistance 49) | DRSC07466 | 8 | – | inactive
Mdr49 (Multi drug resistance 49) | DRSC24065 | – | – | inactive
ng1 (new glue 1) | DRSC18802 | 6 | – | inactive
CG5543 | DRSC04511 | 6 | – | inactive
CG32115 | DRSC22607 | 6 | – | inactive
Amnionless | DRSC00317 | – | – | inactive
eEF1delta (eukaryotic translation elongation factor 1 delta) | DRSC02790 | 1 | – | inactive
eEF1delta (eukaryotic translation elongation factor 1 delta) | DRSC26084 | 5 | – | inactive
CG13579 | DRSC04215 | 4 | – | inactive
CG13579 | DRSC25603 | 5 | – | inactive
CG14861 | DRSC14984 | 3 | – | inactive
CtsL1 (Cathepsin L1) | DRSC05462 | 9 | – | inactive
CtsL1 (Cathepsin L1) | DRSC07363 | 6 | – | inactive
CtsL1 (Cathepsin L1) | DRSC29071 | 10 | – | inactive
CG13634 | DRSC14635 | 13 | – | inactive
CG3739 | DRSC15510 | 7 | – | inactive
fest (wurstfest) | DRSC07349 | 7 | – | inactive
fest (wurstfest) | DRSC24249 | 3 | – | inactive
galla-1 | DRSC05987 | 2 | – | inactive
CG15629 | DRSC00464 | 8 | – | inactive
CG15629 | DRSC29518 | 2 | – | inactive
CG32199 | DRSC09990 | 6 | – | inactive
AspRS (Aspartyl-tRNA synthetase) | DRSC05914 | – | – | inactive
CG10431 | DRSC02055 | 3 | – | inactive
CG45002 | DRSC20144 | 5 | – | inactive
CG31286 | DRSC26727 | 7 | – | inactive
CaMKI (Calcium/calmodulin-dependent protein kinase I) | DRSC17162 | 6 | – | inactive
CG14691 | DRSC14914 | 8 | – | inactive
CG14691 | DRSC27957 | 8 | – | inactive
Rpn3 (Regulatory particle non-ATPase 3) | DRSC03318 | 37 | – | inactive
Rpn3 (Regulatory particle non-ATPase 3) | DRSC29446 | 66 | – | inactive
CG42562 | DRSC06453 | 5 | – | inactive
CG31827 + CG18478 | DRSC01958 | 6 | – | inactive
Lerp (lysosomal enzyme receptor protein) | DRSC14750 | 12 | – | inactive
Lerp (lysosomal enzyme receptor protein) | DRSC14751 | 17 | – | inactive
Lerp (lysosomal enzyme receptor protein) | DRSC16030 | 9 | – | inactive
Lerp (lysosomal enzyme receptor protein) | DRSC16031 | 4 | – | inactive
ms(3)K81 (male sterile (3) K81) | DRSC14746 | 3 | – | inactive
Wnt10 (Wnt oncogene analog 10) | DRSC02797 | 4 | – | inactive
Wnt10 (Wnt oncogene analog 10) | DRSC29973 | 8 | – | inactive
meep | DRSC07948 | 21 | – | inactive
meep | DRSC25511 | 12 | – | inactive
CG31219 | DRSC15140 | 9 | – | inactive
Slip1 (SLo interacting protein 1) | DRSC17146 | 4 | – | inactive
CG34176 | DRSC00435 | 2 | – | inactive
CG3746 | DRSC04412 | 2 | – | inactive
CG3746 | DRSC30050 | 8 | – | inactive
CG6567 | DRSC16066 | 8 | – | inactive
Apoltp (Apolipoprotein lipid transfer particle) | DRSC02508 | 4 | – | inactive
Yp2 (Yolk protein 2) | DRSC18732 | 8 | – | inactive
Yp2 (Yolk protein 2) | DRSC29289 | 2 | – | inactive
Got2 (Glutamate oxaloacetate transaminase 2) | DRSC00643 | 3 | – | inactive
CG11529 | DRSC09839 | 6 | – | inactive
Shab (Shaker cognate b) | DRSC08013 | 8 | – | inactive
Shab (Shaker cognate b) | DRSC08643 | 6 | – | inactive
Shab (Shaker cognate b) | DRSC08699 | 8 | – | inactive
Shab (Shaker cognate b) | DRSC28359 | 6 | – | inactive
l(1)10Bb (lethal (1) 10Bb) | DRSC20346 | 8 | – | inactive

Copied from the entries so far for reference:
predicted target | dsRNA | mitotic cells, replicate 1 | mitotic cells, replicate 2 | outcome
Mdr49 (Multi drug resistance 49) | DRSC24065 | – | – | inactive
ng1 (new glue 1) | DRSC18802 | 6 | – | inactive
CG5543 | DRSC04511 | 6 | – | inactive
CG32115 | DRSC22607 | 6 | – | inactive
Amnionless | DRSC00317 | – | – | inactive
eEF1delta (eukaryotic translation elongation factor 1 delta) | DRSC02790 | 1 | – | inactive
eEF1delta (eukaryotic translation elongation factor 1 delta) | DRSC26084 | 5 | – | inactive
CG13579 | DRSC04215 | 4 | – | inactive
CG13579 | DRSC25603 | 5 | – | inactive
CG14861 | DRSC14984 | 3 | – | inactive
CtsL1 (Cathepsin L1) | DRSC05462 | 9 | – | inactive
CtsL1 (Cathepsin L1) | DRSC07363 | 6 | – | inactive
CtsL1 (Cathepsin L1) | DRSC29071 | 10 | – | inactive
CG13634 | DRSC14635 | 13 | – | inactive

The list goes on:
predicted target | dsRNA | mitotic cells, replicate 1 | mitotic cells, replicate 2 | outcome
Sesn (Sestrin) | DRSC04101 | 10 | – | inactive
Sesn (Sestrin) | DRSC04102 | 5 | – | inactive
Sesn (Sestrin) | DRSC04103 | 3 | – | inactive
Prp19 (Pre-RNA processing factor 19) | DRSC07434 | 5 | – | inactive
Prp19 (Pre-RNA processing factor 19) | DRSC23905 | 2 | – | inactive
CG7130 | DRSC11797 | 5 | – | inactive
CG6357 | DRSC06979 | 4 | – | inactive
alpha-Cat (alpha Catenin) | DRSC11917 | 6 | 13 | inactive
CG13455 | DRSC10002 | 8 | – | inactive
CG3690 | DRSC18170 | 8 | – | inactive
CG3690 | DRSC18641 | 13 | – | inactive
oc (ocelliless) | DRSC25006 | 2 | – | inactive
Snm1 | DRSC12130 | 4 | – | inactive
CR33319 (pseudo) | DRSC01826 | 10 | – | inactive
CG3280 (retired record) | DRSC10356 | 7 | – | inactive
CG10681 | DRSC09777 | 5 | – | inactive
CG10681 | DRSC21484 | 8 | – | inactive
CG10681 | DRSC27329 | 6 | – | inactive
ple (pale) | DRSC11383 | 2 | – | inactive
CG9452 | DRSC11075 | 4 | – | inactive
CG9452 | DRSC23344 | 13 | – | inactive
CR32011 + CR32010 + PlexB + 1 more | DRSC21664 | 6 | – | inactive
CR32011 + CR32010 + PlexB + 1 more | DRSC26099 | 1 | – | inactive
BomT2 (Bomanin Tailed 2) | DRSC06631 | 5 | – | inactive
Ccdc58 (Coiled-coil domain-containing 58) | DRSC10218 | 10 | – | inactive
lbl (ladybird late) | DRSC16986 | 5 | – | inactive
CG3662 | DRSC00626 | 4 | – | inactive
tap (target of Poxn) | DRSC11402 | 7 | – | inactive
Hcf (Host cell factor) | DRSC17143 | 8 | – | inactive
Rbsn-5 (Rabenosyn-5) | DRSC03094 | 5 | – | inactive
Rbsn-5 (Rabenosyn-5) | DRSC27756 | 6 | – | inactive
modSP (modular serine protease) | DRSC16726 | 3 | – | inactive
modSP (modular serine protease) | DRSC16857 | 1 | – | inactive
modSP (modular serine protease) | DRSC21489 | 12 | – | inactive
Hsdl2 (Hydroxysteroid dehydrogenase like 2) | DRSC15839 | 2 | – | inactive
Hsdl2 (Hydroxysteroid dehydrogenase like 2) | DRSC28075 | 6 | – | inactive
fusl (fuseless) | DRSC02351 | 4 | – | inactive
fusl (fuseless) | DRSC28283 | 6 | – | inactive
Hr51 (Hormone receptor 51) | DRSC06627 | 3 | – | inactive
Hr51 (Hormone receptor 51) | DRSC22829 | 16 | – | inactive
Ssrp (Structure specific recognition protein) | DRSC04658 | 3 | – | inactive
Ssrp (Structure specific recognition protein) | DRSC29959 | – | – | inactive
